Measured values taken from publication PMC10457349.
Results are given in words; binding and its absence hold for the method and conditions named. Some entries that bind do so weakly or less than the wild type.

By UniProt entry, the sequences of proteins in these tests, tags left out.
UniProt Q8TEK3: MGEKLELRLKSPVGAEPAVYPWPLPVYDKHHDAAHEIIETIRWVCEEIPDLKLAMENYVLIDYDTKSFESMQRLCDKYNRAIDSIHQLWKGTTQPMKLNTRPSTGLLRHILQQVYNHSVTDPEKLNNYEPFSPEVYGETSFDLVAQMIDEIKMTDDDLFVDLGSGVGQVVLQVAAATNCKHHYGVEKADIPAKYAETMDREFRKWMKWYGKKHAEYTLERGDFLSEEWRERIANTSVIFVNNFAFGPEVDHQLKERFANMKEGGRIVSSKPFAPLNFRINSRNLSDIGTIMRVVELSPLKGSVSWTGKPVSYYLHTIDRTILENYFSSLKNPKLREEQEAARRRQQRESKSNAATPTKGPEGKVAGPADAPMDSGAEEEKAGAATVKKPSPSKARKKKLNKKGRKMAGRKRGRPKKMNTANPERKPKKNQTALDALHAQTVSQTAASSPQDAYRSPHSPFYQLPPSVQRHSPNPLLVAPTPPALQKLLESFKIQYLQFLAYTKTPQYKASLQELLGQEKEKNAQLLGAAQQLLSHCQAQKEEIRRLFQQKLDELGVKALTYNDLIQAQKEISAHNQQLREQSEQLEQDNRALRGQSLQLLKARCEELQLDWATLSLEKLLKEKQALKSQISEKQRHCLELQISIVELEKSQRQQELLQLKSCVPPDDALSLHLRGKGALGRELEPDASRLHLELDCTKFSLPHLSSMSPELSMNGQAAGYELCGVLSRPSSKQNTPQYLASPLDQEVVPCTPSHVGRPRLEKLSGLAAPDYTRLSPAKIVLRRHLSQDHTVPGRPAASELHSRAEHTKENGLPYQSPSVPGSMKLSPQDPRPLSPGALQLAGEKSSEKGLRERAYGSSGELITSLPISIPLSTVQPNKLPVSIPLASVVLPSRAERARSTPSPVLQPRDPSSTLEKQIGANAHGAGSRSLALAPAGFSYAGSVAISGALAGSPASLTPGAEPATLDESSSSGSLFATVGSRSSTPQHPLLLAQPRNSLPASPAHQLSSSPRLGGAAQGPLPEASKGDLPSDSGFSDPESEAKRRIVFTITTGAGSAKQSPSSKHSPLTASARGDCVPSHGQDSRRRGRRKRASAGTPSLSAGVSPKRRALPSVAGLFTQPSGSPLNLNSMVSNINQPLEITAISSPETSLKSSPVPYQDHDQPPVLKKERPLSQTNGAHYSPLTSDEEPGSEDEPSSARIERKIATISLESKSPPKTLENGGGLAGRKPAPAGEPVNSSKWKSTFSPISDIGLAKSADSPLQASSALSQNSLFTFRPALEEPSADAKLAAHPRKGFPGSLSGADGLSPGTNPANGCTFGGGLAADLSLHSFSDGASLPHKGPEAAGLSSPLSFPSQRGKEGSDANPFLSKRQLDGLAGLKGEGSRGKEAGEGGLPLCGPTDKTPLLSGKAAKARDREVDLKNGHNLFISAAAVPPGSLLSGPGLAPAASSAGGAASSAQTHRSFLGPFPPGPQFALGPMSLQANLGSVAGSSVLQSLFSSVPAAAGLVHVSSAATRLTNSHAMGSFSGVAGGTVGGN

Target: TetR fusion of DOT1L (UniProt Q8TEK3)
Test: TetR recruitment to a TetO array, ChIP-qPCR; mouse ES cells with a TetO array stably expressing FS2-TetR fusion proteins; ChIP-qPCR for endogenous proteins at the TetO array; negative control 1 µg/ml doxycycline for 6 h

binding: binds
B1: Enl, endogenous in mouse ES cells (protein, UniProt Q9ERL0 1-547)
chain: MDNQCTVQVKLELGHRAQLRKKPTTEGFTHDWMVFVRGPEQCDIQHFVEKVIFRLHDSFPKPKRVCKEPPYKVEESGYAGFIMLIEVYFKNKEEPRKVCFTYDLFLNLEGNPPVNHLRCEKLTFNNPTTEFRCKLLMAGGVMVMPEGADTVSRPSPDYPMLPTIPLSAFSDPKKNKPSHGSKDANKESGKASKPHKVAREHRERPRKDSESRSCSKEPEREPKSAKDAARKLPKEEKAPVPKAAFKEPKMALKETKLESLSPKGVPQPPTLPKASSKRPAATDSPKLSAKKPKKSGSKGTRRAPGTSPRASSFPDKKVARDKNSKGDKGKAESEPREAKRTLQTEDSNSEDEASFRSESAQSSPANASSSSDSSSDSDFEPSQNHSQGPLRSMVEDLQSEGSDEDDSSSGEENTGKANPGRESRLSFSDSESDNSADSCLPGREPLPPQKPPPPSSKVSGRRSPEPCSKPEKMLKKATYDKAYTDELVELHRRLMALRERNVLQQIVNLIEETGHFNVTNTTFDFDLFSLDESTVRKLQSCLEAVAT
